From US10335453B2, “Compositions and methods for improving sexual function” (Nymox Corporation, priority 2017, dated 2019)
Part of at least one peptide drawing is inferred or uncertain, most often the ends. Peptide text beside a SMILES is read from it.

Experiments:
[1] = system: patients with BPH; assay: Example 1: Sexual Function Questionnaire (SFQ), treatment naïve BPH patients, one intraprostatic injection, 12 months follow-up; assay type: in vivo, human
Protocol: Three hundred and seventy (370) patients with BPH and with no prior history of any conventional approved medical or surgical treatment (“treatment naïve”) for BPH were given an intraprostatic injection of either (a) NX-1207 (2.5 mg) in phosphate buffered saline pH 7.2 (“PBS”) (n=213) or (b) PBS alone (n=157), under double-blind conditions by a urologist in an office setting under ultrasound guidance. These patients were followed for 12 months after treatment and their progress was monitored by urological investigations. Prior to their treatment each patient's sexual function was assessed by history and each patient completed a Sexual Function Questionnaire (“SFQ”) which scored from 0 to 12 points the degree to which the patient considered they had any problems with 1. lack of sex drive, 2. ability to get and keep an erection, and 3. problems with ejaculation, (Problem Assessment Scale of the Brief Male Sexual Function Inventory). A higher score indicates improvement with a better sexual functional self-assessment and less of a sexual problem; a lower score indicates worsening with more of a sexual problem. Many approved BPH medications and treatments are associated with lower scores. The SFQ was subsequently re-administered 12 months post-treatment. The difference from baseline score in the SFQ was compared in NX-1207 patients vs results in patients who received PBS alone.

[2] = system: BPH patients with significant sexual problems; assay: Example 2: SFQ, treatment naïve BPH patients with significant sexual problems (baseline SFQ<=3), one intraprostatic injection, 12 months; assay type: in vivo, human; details: for % Patients showing improvement: 12 months, 75 patients with baseline SFQ<=3
Protocol: One hundred twenty three (123) BPH patients with significant sexual problems and with no prior history of any conventional approved medical or surgical treatment (“treatment naïve”) for BPH were given an intraprostatic injection of either (a) NX-1207 (2.5 mg) in phosphate buffered saline pH 7.2 (“PBS”) (n=75) or (b) PBS alone (n=48), under double-blind conditions by a urologist in an office setting under ultrasound guidance. These patients were followed for 12 months after treatment and their progress was monitored by urological investigations. Prior to their treatment each patient's sexual function was assessed by history and each patient completed a Sexual Function Questionnaire (“SFQ”) which scored from 0 to 12 points the degree to which the patient considered they had any problems with 1. lack of sex drive, 2. ability to get and keep an erection, and 3. problems with ejaculation; (Problem Assessment Scale of the Brief Male Sexual Function Inventory). A higher score indicates improvement with a better sexual functional self-assessment and less of a sexual problem; a lower score indicates worsening with more of a sexual problem. Many approved BPH medications and treatments, and conditions are associated with lower scores. All 123 BPH patients in this group had baseline pre-treatment SFQ scores<=3 points indicating significant sexual problems. The SFQ was subsequently re-administered 12 months post-treatment. The proportions of patients with SFQ<=3 points at pre-treatment baseline and at one year post-treatment were compared in NX-1207 patients vs results in patients who received PBS alone.

[3] = system: BPH patients; assay: Example 4: proportion with no worsening or improvement in SFQ, two NX-1207 injections vs PBS followed by one NX-1207 injection; assay type: in vivo, human; details: for No. of patients with baseline unchanged or improvement in SFQ score: 6 months post second treatment
Protocol: One hundred and fifty (150) BPH patients with no prior history of any conventional approved medical or surgical treatment (“treatment naïve”) for BPH were given an intraprostatic injection of either (a) NX-1207 (2.5 mg) in phosphate buffered saline pH 7.2 (“PBS”) (n=83) or (b) PBS alone (n=67), under double-blind conditions by a urologist in an office setting under ultrasound guidance. All patients were followed for a period of 12.6-51.1 months and then treated by a second open-label injection of NX-1207 (2.5 mg) in PBS. Prior to their treatment each patient's sexual function was assessed by history and each patient completed a Sexual Function Questionnaire (“SFQ”) which scored from 0 to 12 points the degree to which the patient considered they had any problems with 1. lack of sex drive, 2. ability to get and keep an erection, and 3. problems with ejaculation, (Problem Assessment Scale of the Brief Male Sexual Function Inventory). A higher score indicates improvement with a better sexual functional self-assessment and less of a sexual problem; a lower score indicates worsening with more of a sexual problem. Many approved BPH medications and treatments are associated with lower scores. The SFQ was subsequently re-administered 6 months post second treatment. The proportion of patients responding with no worsening or with improvement in the SFQ was compared in NX-1207 patients who received 2 injections of NX-1207 vs results in patients who received PBS alone followed by 1 injection of NX-1207.

[4] = system: BPH patients; assay: Example 6: proportion of treatment-naive BPH patients with SFQ<=3, NX-1207 vs PBS, 12.6-51.1 months; assay type: in vivo, human
Protocol: Three hundred twenty four (324) BPH patients were given an intraprostatic injection of either (a) NX-1207 (2.5 mg) in phosphate buffered saline pH 7.2 (“PBS”) (n=189) or (b) PBS alone (n=135), under double-blind conditions by a urologist in an office setting under ultrasound guidance. These patients were followed for 12.6-51.1 months after treatment and their progress was monitored by urological investigations. Prior to their treatment each patient's sexual function was assessed by history and each patient completed a Sexual Function Questionnaire (“SFQ”) which scored from 0 to 12 points the degree to which the patient considered they had any problems with 1. lack of sex drive, 2. ability to get and keep an erection, and 3. problems with ejaculation; (Problem Assessment Scale of the Brief Male Sexual Function Inventory). A higher score indicates improvement with a better sexual functional self-assessment and less of a sexual problem; a lower score indicates worsening with more of a sexual problem. Many approved BPH medications and treatments are associated with lower scores. Eighty nine (89) BPH patients in this group had baseline pre-treatment SFQ scores<=3 points indicating significant sexual problems. The SFQ was subsequently re-administered 12.6-51.1 months post-treatment. The proportions of patients with SFQ<=3 points at pre-treatment baseline and at 12.6-51.1 months post-treatment were compared in NX-1207 patients vs results in patients who received PBS alone.

[5] = system: localized prostate cancers; details: administered directly into localized prostate cancers; cited from earlier work
[6] = system: prostate gland; details: cited from earlier work

In the case of `CC[C@H](C)[C@H](N)C(=O)N[C@@H](CC(=O)O)C(=O)N[C@@H](CCC(N)=O)C(=O)N[C@@H](CCC(N)=O)C(=O)N[C@H](C(=O)N[C@@H](CC(C)C)C(=O)N[C@@H](CO)C(=O)N[C@@H](CCCNC(=N)N)C(=O)N[C@H](C(=O)N[C@@H](CCCCN)C(=O)N[C@@H](CC(C)C)C(=O)N[C@@H](CCC(=O)O)C(=O)N[C@H](C(=O)N[C@@H](CCCCN)C(=O)N[C@@H](CCCNC(=N)N)C(=O)N[C@@H](CS)C(=O)N[C@@H](CC(C)C)C(=O)O)[C@@H](C)CC)[C@@H](C)CC)C(C)C` [SEQ ID NO: 66, IDQQVLSRIKLEIKRCL] (H-IDQQVLSRIKLEIKRCL-OH), the “Mean change from baseline” value ([1]; SFQ score (0 to 12 points), 12 months post-treatment, treatment naïve, one intraprostatic injection NX-1207 2.5 mg in PBS, n=213, p < 0.0001 vs baseline) is reported as 1.00, the “improving sexual function as measured by the SFQ, compared to placebo” value ([1]; one treatment, mean change 1.00 vs 0.35 placebo) is reported as “about 65%” and the “% Patients showing improvement” value ([2]; one injection 2.5 mg) is reported as 25.3%. The “% Patients showing improvement” value ([2]; one injection 2.5 mg, listed as NTP peptide) was “about 25.3%”, the “improvement in the number of patients exhibiting improved sexual function, compared to placebo” value ([2]; 25.3% vs 4.1% placebo) was “about 84%” and the “No. of patients with SFQ ≤ 3 at T = 1 yr” value ([2]; of 75 patients, all SFQ<=3 at baseline, one injection 2.5 mg, p < 0.0001 vs baseline, p < 0.005 vs placebo) was 56 (1)(2). For the same compound, the “No. of patients with baseline unchanged or improvement in SFQ score” value ([3]; PBS followed by one injection of NX-1207 2.5 mg, of 67 patients) was 45, the “No. of patients with baseline unchanged or improvement in SFQ score” value ([3]; two injections of NX-1207 2.5 mg, of 83 patients, p < 0.02 vs PBS group) was 70 (*) and the “improvement in the number of patients exhibiting no worsening or improved sexual function” value ([3]; 84% vs 67%) was “about 20%”. For the same compound, the “% Unchanged or improved patients” value ([3]; PBS followed by one injection of NX-1207 2.5 mg, n=67) was 67%, the “% Unchanged or improved patients” value ([3]; two injections of NX-1207 2.5 mg, n=83) was 84% and the “% Unchanged or improved patients” value ([3]; two injections of NX-1207 2.5 mg, n=83, listed as NTP peptide) was “about 84%”. The “No. of treatment-naive patients with severe sexual problems (SFQ ≤ 3) at T = 1 yr” value ([4]; 23 at T = 0, one injection 2.5 mg, total 189 patients) was 16, the “% Increase or decrease in number of treatment-naive patients with severe sexual problems (SFQ ≤ 3) at T = 1 year” value ([4]; 23 at T = 0 to 16, p < 0.05 vs placebo, listed as NTP peptide) was “about 30%” and the “improvement in the percentage of patients exhibiting no worsening or improved sexual function, compared to placebo” value ([4]; decrease of 30% vs increase of 82% placebo) was “about 373%”. The “cancer progression compared to untreated control patients” value [5] was “less cancer progression”, the “cell death in the prostate gland” value ([6]; human, in vivo) was “promote cell death in the prostate gland” and the “lower urinary tract symptoms of BPH” value ([6]; injected directly into the enlarged transition zone of the prostate) was “long-term improvement in the lower urinary tract symptoms of BPH”.
